The supplement of paper PMC10849652
This is one part of the list.

The chains behind the UniProt entries cited, without tags or fusion partners. Where a name states a change or a piece, a line headed by the entry shows the natural chain unless it says otherwise.
UniProt P17026: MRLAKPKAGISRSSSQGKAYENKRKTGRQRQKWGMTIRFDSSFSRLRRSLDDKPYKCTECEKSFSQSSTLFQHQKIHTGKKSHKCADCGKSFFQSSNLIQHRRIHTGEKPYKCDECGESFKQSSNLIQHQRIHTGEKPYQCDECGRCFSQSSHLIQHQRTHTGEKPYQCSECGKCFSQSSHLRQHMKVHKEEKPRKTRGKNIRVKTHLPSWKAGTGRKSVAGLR
UniProt P17098: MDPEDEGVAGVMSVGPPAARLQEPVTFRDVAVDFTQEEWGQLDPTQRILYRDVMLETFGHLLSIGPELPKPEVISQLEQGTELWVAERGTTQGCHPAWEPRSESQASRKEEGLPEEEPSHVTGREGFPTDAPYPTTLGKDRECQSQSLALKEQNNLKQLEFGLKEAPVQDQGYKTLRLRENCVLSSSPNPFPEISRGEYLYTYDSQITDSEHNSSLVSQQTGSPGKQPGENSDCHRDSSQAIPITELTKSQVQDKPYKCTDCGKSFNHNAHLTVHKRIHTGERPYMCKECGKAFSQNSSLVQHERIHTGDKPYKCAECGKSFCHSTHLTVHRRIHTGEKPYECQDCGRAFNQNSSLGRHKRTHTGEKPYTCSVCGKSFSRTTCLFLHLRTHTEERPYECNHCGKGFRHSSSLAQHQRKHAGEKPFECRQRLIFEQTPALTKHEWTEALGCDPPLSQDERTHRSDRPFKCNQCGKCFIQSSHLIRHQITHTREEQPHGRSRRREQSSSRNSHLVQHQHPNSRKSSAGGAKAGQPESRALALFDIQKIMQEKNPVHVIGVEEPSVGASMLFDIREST
UniProt Q9Y5V0: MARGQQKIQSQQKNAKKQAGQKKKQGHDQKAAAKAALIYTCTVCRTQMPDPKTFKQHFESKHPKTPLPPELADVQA
UniProt Q5T7W0: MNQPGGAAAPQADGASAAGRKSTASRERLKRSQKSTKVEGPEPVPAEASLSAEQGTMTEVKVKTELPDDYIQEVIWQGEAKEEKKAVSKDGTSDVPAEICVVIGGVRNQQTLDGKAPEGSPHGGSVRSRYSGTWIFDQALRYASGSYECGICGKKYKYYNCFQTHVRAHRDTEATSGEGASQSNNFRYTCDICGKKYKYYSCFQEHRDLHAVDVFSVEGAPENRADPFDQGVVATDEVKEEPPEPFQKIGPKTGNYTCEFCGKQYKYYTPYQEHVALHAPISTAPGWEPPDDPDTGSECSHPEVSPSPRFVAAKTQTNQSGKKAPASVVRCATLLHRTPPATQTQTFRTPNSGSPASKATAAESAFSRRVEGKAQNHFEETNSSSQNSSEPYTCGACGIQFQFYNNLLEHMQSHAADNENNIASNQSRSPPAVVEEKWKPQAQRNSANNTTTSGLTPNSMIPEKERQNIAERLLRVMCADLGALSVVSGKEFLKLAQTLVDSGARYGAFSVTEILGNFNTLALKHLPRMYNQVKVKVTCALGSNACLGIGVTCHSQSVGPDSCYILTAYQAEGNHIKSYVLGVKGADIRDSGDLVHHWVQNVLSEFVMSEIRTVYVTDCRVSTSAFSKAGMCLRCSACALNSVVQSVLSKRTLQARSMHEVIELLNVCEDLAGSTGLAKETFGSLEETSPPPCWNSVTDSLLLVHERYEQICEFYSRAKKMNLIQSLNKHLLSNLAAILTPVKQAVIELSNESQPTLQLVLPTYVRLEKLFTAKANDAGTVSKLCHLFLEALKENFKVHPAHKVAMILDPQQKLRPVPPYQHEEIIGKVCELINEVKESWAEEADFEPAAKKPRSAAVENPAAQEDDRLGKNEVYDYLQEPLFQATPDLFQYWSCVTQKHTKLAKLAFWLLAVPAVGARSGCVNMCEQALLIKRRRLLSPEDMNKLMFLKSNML
UniProt Q9ULJ6: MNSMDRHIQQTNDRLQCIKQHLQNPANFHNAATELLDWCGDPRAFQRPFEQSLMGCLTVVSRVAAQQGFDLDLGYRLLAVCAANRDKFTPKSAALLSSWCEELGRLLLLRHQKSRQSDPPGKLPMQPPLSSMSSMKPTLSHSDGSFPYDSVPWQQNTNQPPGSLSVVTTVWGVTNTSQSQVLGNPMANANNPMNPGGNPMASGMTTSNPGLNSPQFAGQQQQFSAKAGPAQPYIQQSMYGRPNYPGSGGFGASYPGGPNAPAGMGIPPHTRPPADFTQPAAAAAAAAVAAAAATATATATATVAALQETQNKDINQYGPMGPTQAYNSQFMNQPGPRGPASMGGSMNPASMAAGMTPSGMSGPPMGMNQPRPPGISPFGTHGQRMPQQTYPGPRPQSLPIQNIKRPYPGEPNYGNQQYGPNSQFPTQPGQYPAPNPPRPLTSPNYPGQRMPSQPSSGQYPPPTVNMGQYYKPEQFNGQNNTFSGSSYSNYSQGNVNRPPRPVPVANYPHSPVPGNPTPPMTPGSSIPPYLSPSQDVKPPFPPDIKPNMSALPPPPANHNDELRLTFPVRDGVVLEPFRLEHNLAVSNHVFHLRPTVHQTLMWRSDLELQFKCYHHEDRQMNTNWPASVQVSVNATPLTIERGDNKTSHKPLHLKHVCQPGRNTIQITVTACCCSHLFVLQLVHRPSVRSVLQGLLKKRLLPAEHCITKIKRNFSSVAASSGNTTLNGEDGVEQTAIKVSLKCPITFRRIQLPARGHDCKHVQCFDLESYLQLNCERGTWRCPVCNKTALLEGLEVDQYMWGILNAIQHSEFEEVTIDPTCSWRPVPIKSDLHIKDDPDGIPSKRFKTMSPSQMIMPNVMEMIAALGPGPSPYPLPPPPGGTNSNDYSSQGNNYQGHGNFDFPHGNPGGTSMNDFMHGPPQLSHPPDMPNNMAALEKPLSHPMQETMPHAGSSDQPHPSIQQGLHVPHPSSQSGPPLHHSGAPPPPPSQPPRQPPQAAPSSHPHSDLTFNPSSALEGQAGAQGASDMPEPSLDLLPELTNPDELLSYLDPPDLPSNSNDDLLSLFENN
UniProt O15014: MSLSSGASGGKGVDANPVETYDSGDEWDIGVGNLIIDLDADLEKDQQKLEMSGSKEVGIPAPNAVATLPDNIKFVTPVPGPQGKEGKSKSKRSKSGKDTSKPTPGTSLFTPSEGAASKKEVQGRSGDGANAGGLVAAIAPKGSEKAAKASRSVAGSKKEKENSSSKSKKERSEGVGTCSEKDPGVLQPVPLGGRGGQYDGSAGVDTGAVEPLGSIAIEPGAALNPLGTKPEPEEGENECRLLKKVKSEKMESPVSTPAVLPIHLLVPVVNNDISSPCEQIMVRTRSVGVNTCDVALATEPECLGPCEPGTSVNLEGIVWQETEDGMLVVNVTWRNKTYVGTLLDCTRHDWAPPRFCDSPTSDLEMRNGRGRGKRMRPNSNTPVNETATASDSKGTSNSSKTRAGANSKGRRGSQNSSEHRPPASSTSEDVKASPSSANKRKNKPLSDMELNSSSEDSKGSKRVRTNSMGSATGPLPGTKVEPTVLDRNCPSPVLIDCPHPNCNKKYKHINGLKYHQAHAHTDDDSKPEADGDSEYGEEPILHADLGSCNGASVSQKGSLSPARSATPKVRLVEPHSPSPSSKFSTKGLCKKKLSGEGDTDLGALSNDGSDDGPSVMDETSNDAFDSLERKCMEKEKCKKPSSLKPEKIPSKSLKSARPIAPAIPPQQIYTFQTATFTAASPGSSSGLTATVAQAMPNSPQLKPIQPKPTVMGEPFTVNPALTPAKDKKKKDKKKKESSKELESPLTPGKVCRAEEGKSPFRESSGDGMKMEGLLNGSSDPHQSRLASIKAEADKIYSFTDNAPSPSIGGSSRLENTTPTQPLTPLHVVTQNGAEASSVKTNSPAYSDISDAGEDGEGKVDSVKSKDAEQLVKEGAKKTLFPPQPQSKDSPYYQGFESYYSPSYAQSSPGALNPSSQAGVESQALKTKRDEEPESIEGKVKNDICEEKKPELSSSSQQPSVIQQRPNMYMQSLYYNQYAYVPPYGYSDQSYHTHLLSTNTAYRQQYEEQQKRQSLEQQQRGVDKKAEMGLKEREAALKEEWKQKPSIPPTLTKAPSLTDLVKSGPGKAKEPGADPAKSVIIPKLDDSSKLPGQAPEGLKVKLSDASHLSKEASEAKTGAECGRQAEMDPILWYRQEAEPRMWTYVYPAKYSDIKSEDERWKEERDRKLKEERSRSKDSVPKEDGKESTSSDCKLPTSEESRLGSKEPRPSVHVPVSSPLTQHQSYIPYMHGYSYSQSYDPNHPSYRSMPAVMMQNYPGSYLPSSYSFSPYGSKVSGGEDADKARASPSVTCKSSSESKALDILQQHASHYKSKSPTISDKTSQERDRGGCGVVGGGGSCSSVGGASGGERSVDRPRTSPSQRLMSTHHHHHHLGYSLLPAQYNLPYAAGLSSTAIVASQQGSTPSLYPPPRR
UniProt Q5VUA4: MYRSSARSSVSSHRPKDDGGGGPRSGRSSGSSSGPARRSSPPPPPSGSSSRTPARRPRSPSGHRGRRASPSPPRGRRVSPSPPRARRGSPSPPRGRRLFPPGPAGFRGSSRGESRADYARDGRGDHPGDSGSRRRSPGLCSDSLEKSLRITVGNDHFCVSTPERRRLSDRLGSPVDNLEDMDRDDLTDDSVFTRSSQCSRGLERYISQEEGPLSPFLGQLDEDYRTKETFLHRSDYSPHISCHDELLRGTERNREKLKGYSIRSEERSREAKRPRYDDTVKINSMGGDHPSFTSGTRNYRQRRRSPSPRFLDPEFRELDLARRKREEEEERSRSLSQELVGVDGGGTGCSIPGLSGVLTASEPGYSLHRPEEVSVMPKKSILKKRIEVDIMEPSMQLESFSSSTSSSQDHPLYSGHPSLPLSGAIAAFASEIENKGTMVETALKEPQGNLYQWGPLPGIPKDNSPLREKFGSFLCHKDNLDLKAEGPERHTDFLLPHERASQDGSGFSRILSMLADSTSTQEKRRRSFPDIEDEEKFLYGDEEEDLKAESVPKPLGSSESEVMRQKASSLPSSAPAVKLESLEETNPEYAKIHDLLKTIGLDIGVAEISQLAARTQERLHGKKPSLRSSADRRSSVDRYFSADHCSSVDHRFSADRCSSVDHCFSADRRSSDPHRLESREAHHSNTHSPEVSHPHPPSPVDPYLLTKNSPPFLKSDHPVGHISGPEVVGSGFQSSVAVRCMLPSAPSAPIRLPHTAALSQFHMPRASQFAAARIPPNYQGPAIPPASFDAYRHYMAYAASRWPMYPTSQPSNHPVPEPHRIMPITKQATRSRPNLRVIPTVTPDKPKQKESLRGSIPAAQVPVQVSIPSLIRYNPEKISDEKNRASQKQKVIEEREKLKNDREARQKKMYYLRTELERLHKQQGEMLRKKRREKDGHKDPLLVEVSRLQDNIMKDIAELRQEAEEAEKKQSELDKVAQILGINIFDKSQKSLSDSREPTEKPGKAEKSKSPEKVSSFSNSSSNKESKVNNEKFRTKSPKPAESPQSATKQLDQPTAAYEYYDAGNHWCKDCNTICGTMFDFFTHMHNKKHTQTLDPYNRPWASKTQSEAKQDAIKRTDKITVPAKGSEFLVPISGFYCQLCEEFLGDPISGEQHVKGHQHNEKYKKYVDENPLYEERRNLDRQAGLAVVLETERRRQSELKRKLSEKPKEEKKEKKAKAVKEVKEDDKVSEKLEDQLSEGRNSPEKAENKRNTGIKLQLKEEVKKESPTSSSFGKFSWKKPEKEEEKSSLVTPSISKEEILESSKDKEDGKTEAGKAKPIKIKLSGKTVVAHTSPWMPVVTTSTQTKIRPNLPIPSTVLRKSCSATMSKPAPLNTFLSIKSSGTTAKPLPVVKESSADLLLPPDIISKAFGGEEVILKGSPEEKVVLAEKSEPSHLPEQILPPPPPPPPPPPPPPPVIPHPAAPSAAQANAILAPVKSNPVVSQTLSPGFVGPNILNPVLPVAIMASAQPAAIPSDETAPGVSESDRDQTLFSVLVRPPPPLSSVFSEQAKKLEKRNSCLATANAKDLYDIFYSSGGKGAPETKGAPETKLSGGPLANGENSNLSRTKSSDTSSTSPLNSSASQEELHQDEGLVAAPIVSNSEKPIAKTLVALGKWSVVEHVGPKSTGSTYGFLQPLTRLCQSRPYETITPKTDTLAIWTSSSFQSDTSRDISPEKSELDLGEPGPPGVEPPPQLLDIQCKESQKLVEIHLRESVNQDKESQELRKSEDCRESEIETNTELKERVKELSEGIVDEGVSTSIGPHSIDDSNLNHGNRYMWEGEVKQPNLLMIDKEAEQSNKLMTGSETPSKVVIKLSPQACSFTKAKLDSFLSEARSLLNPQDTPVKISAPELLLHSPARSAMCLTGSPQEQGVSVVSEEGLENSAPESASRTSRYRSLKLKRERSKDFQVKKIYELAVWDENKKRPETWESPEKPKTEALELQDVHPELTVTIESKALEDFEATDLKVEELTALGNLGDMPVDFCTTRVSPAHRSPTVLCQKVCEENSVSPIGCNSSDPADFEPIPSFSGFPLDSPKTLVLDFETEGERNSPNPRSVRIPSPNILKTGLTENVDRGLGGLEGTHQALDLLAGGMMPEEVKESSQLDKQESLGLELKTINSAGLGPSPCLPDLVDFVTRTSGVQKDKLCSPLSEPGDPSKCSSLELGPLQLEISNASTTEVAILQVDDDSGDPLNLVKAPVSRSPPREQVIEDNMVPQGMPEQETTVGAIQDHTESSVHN

Columns and labels:
Assay in all cases: log2 fold change, soluble protein after heating vs DMSO (PISA); higher = thermal stabilisation; K562 lysate, 10 uM; active = over 0.2 and 3.5 SD of the protein, either way, in both replicates (recomputed)
[1] = compound: C1=CC=C(C=C1)[C@H](COC2=CC3=C(C=C2)NC(=O)N3)NC(=O)C4=CC=CN(C4=O)CC5=CC(=C(C=C5)F)F
Outline: (§1)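 Pellets of K562 cells were dounce-homogenised in PBS pH 7.4 with 1 mM MgCl2, and the crude extract was held at 1 mg/mL protein for a 30 min treatment with 10 μM compound. Aliquots were heated for 3 min over 48°C-58°C and pooled before NP-40 was added to 0.5% at 4°C. The supernatant from 21,000xg for 90 min was quantified by TMTpro 16plex LC-MS/MS with channel sums equalised. Values are reported from duplicates as log-two fold change in thermal stability relative to solvent controls.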

[2] = compound: CC1=C(SC2=C1C(=N[C@H](C3=NN=C(N32)C)CC(=O)N)C4=CC=C(C=C4)Cl)C
Outline: as §1

[3] = compound: CC1=C2C(=CC=C1)N=C(N(C2=O)C3=CC=CC=C3C)CN4C=NC5=C(N=CN=C54)N
Outline: as §1

[4] = compound: Cc1sc2c(c1C)C(c1ccc(Cl)cc1)=N[C@@H](CC(=O)OC(C)(C)C)c1nnc(C)n1-2
Outline: as §1

[5] = compound: c1ccc([C@@H]2C[C@H]2NC2CCNCC2)cc1
Outline: as §1

Measured: log2 fold change

ZNF417 (UniProt Q8TAU3)
inactive: [1] -0.072 | [2] 0.073

ZNF207 isoform 2 (UniProt O43670)
inactive: [1] 0.063 | [2] 0.012 | [3] -0.134 | [4] -0.175

ZNF407 (UniProt Q9C0G0)
inactive: [1] -0.06 | [2] 0.078 | [3] 0.051 | [4] -0.134 | [5] -0.041

ZNF525 (UniProt J3KR51)
inactive: [1] -0.086 | [2] -0.059 | [3] -0.001

ZNF445 (UniProt P59923)
inactive: [1] 0.017 | [2] 0.074 | [3] 0.029 | [4] -0.058

ZNF561-AS1 (UniProt K7EIQ3)
inactive: [1] 0 | [2] 0.093

ZNF22 (UniProt P17026)
inactive: [1] 0.082 | [2] 0.044 | [3] -0.518 | [4] -0.077 | [5] -0.042

ZHX1 (UniProt Q9UKY1)
inactive: [1] 0.016 | [2] 0.036 | [3] 0.022 | [4] -0.224 | [5] -0.22

ZHX3 (UniProt Q9H4I2)
inactive: [1] -0.221 | [2] 0.057 | [3] -0.135 | [4] -0.021 | [5] -0.04

ZNF845 (UniProt Q96IR2)
inactive: [1] -0.239 | [2] 0.048 | [3] 0.114 | [4] -0.058 | [5] 0.083

ZPR1 (UniProt O75312)
inactive: [1] 0.015 | [2] -0.018 | [3] 0.003 | [4] 0.027 | [5] 0.004

ZRANB2 (UniProt O95218)
inactive: [1] 0.061 | [2] -0.018 | [3] -0.014 | [4] -0.041 | [5] -0.005

Random excerpt: 3 records from the list
ZNF845 (UniProt Q96IR2)
inactive: [1] -0.239 | [2] 0.048 | [3] 0.114 | [4] -0.058 | [5] 0.083

ZNF22 (UniProt P17026)
inactive: [1] 0.082 | [2] 0.044 | [3] -0.518 | [4] -0.077 | [5] -0.042

ZHX3 (UniProt Q9H4I2)
inactive: [1] -0.221 | [2] 0.057 | [3] -0.135 | [4] -0.021 | [5] -0.04

Continued.

ZNF593 (UniProt O00488)
inactive: [1] -0.038 | [2] 0.051 | [3] 0.008 | [4] 0.127 | [5] 0.035

ZNF131 (UniProt P52739)
inactive: [1] 0.044 | [2] 0.04 | [3] -0.028 | [4] -0.024 | [5] -0.076

ZNF385A (UniProt Q96PM9)
inactive: [1] 0.034 | [2] -0.09

ZMAT2 (UniProt Q96NC0)
inactive: [1] 0.037 | [2] -0.01 | [3] 0.03 | [4] 0.03 | [5] 0.013

ZMIZ2 (UniProt Q8NF64)
inactive: [1] 0.036 | [2] -0.056 | [3] 0.076 | [4] -0.082 | [5] -0.001

ZNF579 (UniProt Q8NAF0)
inactive: [1] 0.064 | [2] 0.038 | [3] -0.104 | [4] -0.188 | [5] -0.093

ZMYM2 (UniProt Q9UBW7)
inactive: [1] 0.105 | [2] 0.07 | [3] 0.062 | [4] 0.015 | [5] 0.183

ZNF100 (UniProt Q8IYN0)
inactive: [1] -0.092 | [2] -0.202

ZNF225 (UniProt Q9UK10)
inactive: [1] -0.08 | [2] 0.136 | [3] 0.04 | [4] -0.182

ZNRD2 (UniProt G3V1B8)
inactive: [1] -0.217 | [2] 0 | [3] 0.088 | [4] 0.048 | [5] -0.083

ZNF217 (UniProt O75362)
inactive: [1] -0.037 | [2] 0.075 | [3] 0.129 | [4] 0.053 | [5] 0

ZYX (UniProt Q15942)
inactive: [1] 0.022 | [2] -0.008 | [3] -0.041 | [4] -0.034 | [5] -0.016

ZNHIT1 (UniProt O43257)
inactive: [1] -0.099 | [2] 0.003

ZNF691 (UniProt Q5VV52)
inactive: [1] -0.016 | [2] 0.047 | [3] -0.014 | [4] 0.005 | [5] -0.228

ZMYM3 (UniProt Q14202)
inactive: [1] -0.004 | [2] -0.033 | [3] -0.014 | [4] -0.006 | [5] 0.01

ZNF460 (UniProt Q14592)
inactive: [1] -0.069 | [2] 0.081 | [3] -0.058

ZNF622 (UniProt Q969S3)
inactive: [1] 0.045 | [2] 0.034 | [3] 0 | [4] 0.012 | [5] 0.039

ZNF8 (UniProt P17098)
inactive: [1] -0.313 | [2] -0.109 | [3] 0.048 | [4] -0.106 | [5] 0.045

ZNF24 (UniProt P17028)
inactive: [1] 0.092 | [2] -0.014 | [3] 0.032 | [4] -0.037 | [5] -0.058

ZNF830 (UniProt Q96NB3)
inactive: [1] -0.004 | [2] 0.002 | [3] -0.018 | [4] -0.023 | [5] 0.031

ZNF768 (UniProt Q9H5H4)
inactive: [1] 0.096 | [2] -0.08 | [3] 0.047 | [4] 0.029 | [5] -0.023

ZMYND8 isoform 19 (UniProt Q9ULU4)
inactive: [1] -0.006 | [2] -0.011 | [3] 0.055 | [4] 0.011 | [5] -0.026

ZWILCH (UniProt Q9H900)
inactive: [1] 0.043 | [2] 0.032 | [3] 0.05 | [4] 0 | [5] -0.005

ZMPSTE24 (UniProt O75844)
inactive: [1] 0.023 | [2] -0.02 | [3] 0.005 | [4] -0.024 | [5] -0.109

ZNF507 (UniProt Q8TCN5)
inactive: [1] 0.027 | [2] -0.045 | [3] -0.06 | [4] 0.032 | [5] 0.002

ZNF644 (UniProt Q9H582)
inactive: [1] 0 | [2] 0.003 | [3] -0.098 | [4] -0.009 | [5] 0.01

ZNF706 (UniProt Q9Y5V0)
inactive: [1] 0.004 | [2] 0.02 | [3] 0.027 | [4] -0.003 | [5] -0.031

ZNF638 (UniProt Q14966)
inactive: [1] 0.045 | [2] 0.012 | [3] 0.054 | [4] 0.031 | [5] 0.069

ZNF148 (UniProt Q9UQR1)
inactive: [1] -0.082 | [2] 0.148 | [3] -0.023 | [4] 0.025 | [5] 0.143

ZMYM1 (UniProt Q5SVZ6)
inactive: [1] 0.009 | [2] 0.099 | [3] -0.012 | [4] 0 | [5] -0.2

ZNF598 isoform 3 (UniProt Q86UK7)
inactive: [1] -0.037 | [2] -0.014 | [3] 0.006 | [4] 0.034 | [5] 0.025

ZNRD2 (UniProt O60232)
inactive: [1] -0.061 | [2] 0.027 | [3] 0.017 | [4] 0.005 | [5] 0.078

ZNF618 (UniProt Q5T7W0)
inactive: [1] -0.03 | [2] -0.048 | [3] 0.044 | [4] -0.059 | [5] -0.099

ZNF629 (UniProt Q9UEG4)
inactive: [1] -0.121 | [2] 0.196 | [3] -0.014 | [4] 0.029 | [5] 0.089

ZMIZ1 (UniProt Q9ULJ6)
inactive: [1] -0.005 | [2] 0.023 | [3] 0.058 | [4] 0.038 | [5] -0.079

ZKSCAN3 (UniProt Q9BRR0)
inactive: [1] -0.103 | [2] -0.12 | [3] 0.089 | [4] -0.043 | [5] 0.025

ZNF609 (UniProt O15014)
inactive: [1] 0.009 | [2] 0.008 | [3] 0.078 | [4] -0.047 | [5] -0.082

ZNF318 (UniProt Q5VUA4)
inactive: [1] -0.017 | [2] 0.133 | [3] 0 | [4] 0.018 | [5] 0.038

ZNF672 (UniProt Q499Z4)
inactive: [1] 0.058 | [2] -0.048 | [3] 0.017 | [4] -0.003 | [5] 0.105

ZNF277 (UniProt Q9NRM2)
inactive: [1] -0.042 | [2] 0.049 | [3] 0.004 | [4] 0.042 | [5] -0.003

ZNF428 (UniProt M0QXZ5)
inactive: [1] 0.083 | [2] 0.052 | [3] -0.049 | [4] 0.065 | [5] -0.135

ZNF787 (UniProt Q6DD87)
inactive: [1] 0.114 | [2] -0.151 | [3] -0.053 | [4] -0.055 | [5] -0.095

ZNHIT3 (UniProt Q15649)
inactive: [1] 0.037 | [2] 0.064 | [3] -0.005 | [4] -0.009 | [5] -0.194

ZNF512 (UniProt Q96ME7)
inactive: [1] 0.009 | [2] -0.088 | [3] 0.028 | [4] 0.099 | [5] 0.074

ZNF92 (UniProt Q03936)
inactive: [1] -0.039 | [2] 0.114 | [3] -0.064 | [4] 0.095 | [5] 0.078
